Compound in this test: Cc1cc(ccc1-c1ccccc1)C(=O)N1CCCN(CC1)C(=O)CCl [compound 10]
Briefly: probe-labelled cysteine peptide fold change vs DMSO (competition) (log2 fold change); higher = less target engagement (more negative = stronger competition). The settings on record: THP-1, incubation time: 4 h.

The chains behind the UniProt entries cited, without tags or fusion partners. Where a name states a change or a piece, a line headed by the entry shows the natural chain unless it says otherwise.
UniProt P27708: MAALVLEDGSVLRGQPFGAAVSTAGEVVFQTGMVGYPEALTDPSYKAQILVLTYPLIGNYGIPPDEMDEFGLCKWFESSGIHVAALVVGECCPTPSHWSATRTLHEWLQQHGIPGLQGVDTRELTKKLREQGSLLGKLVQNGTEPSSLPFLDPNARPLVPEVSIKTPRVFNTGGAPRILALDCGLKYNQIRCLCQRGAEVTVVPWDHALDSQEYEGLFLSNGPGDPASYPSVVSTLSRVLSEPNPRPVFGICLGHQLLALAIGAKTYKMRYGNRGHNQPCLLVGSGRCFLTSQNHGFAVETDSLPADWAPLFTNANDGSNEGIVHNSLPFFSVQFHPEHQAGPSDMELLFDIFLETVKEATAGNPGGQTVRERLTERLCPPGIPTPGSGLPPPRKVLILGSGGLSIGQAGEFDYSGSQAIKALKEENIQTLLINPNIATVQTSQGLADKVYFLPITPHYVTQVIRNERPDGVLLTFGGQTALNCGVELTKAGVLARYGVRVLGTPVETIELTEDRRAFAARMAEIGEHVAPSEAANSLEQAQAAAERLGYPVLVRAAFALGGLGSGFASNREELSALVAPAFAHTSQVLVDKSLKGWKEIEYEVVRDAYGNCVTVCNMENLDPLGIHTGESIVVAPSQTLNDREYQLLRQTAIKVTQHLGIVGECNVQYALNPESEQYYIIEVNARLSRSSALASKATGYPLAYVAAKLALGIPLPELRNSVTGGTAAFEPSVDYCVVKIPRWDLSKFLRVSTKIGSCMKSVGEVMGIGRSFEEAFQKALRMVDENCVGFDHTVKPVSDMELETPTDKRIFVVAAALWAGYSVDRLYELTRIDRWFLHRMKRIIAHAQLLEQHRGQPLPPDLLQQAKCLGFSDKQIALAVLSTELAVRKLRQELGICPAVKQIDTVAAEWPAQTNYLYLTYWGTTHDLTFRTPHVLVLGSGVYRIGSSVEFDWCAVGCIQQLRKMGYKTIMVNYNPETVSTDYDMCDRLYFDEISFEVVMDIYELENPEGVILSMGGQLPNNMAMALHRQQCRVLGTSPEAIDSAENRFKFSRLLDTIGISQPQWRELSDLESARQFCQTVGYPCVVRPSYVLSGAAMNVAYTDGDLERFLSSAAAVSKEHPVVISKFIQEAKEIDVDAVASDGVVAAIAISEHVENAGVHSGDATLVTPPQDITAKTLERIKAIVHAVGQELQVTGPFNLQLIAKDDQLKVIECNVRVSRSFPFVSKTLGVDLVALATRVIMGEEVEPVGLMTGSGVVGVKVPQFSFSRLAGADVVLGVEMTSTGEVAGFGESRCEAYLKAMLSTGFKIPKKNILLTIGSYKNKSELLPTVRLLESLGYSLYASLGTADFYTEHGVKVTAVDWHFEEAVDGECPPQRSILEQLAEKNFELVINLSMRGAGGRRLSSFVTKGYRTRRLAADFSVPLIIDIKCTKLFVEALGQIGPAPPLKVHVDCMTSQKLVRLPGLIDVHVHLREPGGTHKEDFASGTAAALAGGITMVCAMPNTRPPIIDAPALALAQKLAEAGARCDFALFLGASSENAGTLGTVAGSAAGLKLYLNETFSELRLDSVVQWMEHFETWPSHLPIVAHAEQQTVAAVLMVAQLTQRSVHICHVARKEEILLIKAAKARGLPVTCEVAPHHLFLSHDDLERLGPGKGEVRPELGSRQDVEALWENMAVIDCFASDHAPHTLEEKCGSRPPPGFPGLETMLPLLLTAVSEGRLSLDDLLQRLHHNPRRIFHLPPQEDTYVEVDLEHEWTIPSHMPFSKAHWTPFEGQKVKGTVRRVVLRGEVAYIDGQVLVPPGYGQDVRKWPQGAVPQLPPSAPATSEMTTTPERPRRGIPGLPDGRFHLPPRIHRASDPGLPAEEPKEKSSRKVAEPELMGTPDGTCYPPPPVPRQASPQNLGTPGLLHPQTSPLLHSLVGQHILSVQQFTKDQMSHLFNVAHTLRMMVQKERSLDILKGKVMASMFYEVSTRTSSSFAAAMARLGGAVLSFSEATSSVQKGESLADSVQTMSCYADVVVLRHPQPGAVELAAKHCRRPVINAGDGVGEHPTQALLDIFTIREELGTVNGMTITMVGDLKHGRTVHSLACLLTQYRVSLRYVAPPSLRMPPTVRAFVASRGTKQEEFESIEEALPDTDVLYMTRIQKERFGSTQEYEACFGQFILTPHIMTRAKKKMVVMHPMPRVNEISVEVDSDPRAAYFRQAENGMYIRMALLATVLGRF
UniProt Q01518, whole entry, looked up: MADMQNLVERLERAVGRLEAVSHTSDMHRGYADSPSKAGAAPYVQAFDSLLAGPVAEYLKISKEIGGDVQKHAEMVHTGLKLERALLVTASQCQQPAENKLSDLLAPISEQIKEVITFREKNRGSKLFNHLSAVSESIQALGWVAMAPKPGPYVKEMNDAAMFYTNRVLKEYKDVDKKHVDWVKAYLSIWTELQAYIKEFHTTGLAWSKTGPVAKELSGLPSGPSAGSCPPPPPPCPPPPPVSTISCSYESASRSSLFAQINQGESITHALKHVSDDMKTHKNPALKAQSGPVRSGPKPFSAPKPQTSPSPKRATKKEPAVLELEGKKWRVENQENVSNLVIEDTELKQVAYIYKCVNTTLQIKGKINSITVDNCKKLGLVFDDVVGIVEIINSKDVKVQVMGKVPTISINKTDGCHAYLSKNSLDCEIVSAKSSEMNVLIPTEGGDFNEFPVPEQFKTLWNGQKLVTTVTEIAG
UniProt O14981: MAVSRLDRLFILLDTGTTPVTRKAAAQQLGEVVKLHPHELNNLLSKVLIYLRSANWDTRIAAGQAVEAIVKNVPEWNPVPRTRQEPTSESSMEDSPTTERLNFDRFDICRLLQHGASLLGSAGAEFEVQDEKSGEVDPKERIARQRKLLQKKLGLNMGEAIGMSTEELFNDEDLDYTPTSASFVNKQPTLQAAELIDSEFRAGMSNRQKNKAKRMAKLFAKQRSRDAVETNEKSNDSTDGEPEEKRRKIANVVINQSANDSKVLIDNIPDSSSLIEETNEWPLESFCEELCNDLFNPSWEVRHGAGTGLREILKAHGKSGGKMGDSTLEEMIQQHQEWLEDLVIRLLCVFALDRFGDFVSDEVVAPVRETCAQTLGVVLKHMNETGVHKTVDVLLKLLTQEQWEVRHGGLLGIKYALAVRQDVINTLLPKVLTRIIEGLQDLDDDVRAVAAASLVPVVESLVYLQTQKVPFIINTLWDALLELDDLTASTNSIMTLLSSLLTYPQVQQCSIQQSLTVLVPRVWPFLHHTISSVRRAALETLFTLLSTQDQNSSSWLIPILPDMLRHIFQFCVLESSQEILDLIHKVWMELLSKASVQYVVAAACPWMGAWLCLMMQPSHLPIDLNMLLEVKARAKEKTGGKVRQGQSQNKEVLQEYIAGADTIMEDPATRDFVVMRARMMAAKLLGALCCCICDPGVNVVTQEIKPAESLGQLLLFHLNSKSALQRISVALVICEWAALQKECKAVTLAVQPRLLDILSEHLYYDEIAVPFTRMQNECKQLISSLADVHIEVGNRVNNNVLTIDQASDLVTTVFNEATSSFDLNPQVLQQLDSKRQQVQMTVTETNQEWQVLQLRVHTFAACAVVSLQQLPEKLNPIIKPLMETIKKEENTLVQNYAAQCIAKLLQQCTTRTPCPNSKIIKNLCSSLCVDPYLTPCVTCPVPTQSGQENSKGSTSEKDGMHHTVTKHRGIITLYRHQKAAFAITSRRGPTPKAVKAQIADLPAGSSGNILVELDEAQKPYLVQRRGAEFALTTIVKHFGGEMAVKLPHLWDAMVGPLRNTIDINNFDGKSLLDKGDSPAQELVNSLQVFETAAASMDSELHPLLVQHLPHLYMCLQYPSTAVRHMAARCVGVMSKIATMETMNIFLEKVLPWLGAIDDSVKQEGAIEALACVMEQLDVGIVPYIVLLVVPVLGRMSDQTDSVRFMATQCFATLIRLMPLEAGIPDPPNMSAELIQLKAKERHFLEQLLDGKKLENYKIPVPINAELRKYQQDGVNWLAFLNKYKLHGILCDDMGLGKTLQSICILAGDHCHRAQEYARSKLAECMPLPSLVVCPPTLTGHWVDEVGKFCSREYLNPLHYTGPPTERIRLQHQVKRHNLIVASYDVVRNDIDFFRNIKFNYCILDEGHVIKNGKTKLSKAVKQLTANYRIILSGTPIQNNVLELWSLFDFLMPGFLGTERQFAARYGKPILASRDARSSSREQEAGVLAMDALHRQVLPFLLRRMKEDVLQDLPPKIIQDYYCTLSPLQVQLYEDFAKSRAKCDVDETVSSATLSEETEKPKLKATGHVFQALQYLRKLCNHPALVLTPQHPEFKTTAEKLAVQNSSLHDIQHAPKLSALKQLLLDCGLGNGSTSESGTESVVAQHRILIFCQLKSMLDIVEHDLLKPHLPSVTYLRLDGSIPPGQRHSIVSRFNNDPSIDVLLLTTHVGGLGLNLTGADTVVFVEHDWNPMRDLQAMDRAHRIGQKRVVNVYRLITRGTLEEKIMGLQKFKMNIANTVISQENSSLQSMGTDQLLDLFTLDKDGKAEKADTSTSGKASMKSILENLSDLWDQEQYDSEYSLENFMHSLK
UniProt P41223: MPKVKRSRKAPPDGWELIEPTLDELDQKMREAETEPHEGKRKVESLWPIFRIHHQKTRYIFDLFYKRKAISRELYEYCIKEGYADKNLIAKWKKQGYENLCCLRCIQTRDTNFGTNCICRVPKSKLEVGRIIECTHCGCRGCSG
UniProt P38398, whole entry, looked up: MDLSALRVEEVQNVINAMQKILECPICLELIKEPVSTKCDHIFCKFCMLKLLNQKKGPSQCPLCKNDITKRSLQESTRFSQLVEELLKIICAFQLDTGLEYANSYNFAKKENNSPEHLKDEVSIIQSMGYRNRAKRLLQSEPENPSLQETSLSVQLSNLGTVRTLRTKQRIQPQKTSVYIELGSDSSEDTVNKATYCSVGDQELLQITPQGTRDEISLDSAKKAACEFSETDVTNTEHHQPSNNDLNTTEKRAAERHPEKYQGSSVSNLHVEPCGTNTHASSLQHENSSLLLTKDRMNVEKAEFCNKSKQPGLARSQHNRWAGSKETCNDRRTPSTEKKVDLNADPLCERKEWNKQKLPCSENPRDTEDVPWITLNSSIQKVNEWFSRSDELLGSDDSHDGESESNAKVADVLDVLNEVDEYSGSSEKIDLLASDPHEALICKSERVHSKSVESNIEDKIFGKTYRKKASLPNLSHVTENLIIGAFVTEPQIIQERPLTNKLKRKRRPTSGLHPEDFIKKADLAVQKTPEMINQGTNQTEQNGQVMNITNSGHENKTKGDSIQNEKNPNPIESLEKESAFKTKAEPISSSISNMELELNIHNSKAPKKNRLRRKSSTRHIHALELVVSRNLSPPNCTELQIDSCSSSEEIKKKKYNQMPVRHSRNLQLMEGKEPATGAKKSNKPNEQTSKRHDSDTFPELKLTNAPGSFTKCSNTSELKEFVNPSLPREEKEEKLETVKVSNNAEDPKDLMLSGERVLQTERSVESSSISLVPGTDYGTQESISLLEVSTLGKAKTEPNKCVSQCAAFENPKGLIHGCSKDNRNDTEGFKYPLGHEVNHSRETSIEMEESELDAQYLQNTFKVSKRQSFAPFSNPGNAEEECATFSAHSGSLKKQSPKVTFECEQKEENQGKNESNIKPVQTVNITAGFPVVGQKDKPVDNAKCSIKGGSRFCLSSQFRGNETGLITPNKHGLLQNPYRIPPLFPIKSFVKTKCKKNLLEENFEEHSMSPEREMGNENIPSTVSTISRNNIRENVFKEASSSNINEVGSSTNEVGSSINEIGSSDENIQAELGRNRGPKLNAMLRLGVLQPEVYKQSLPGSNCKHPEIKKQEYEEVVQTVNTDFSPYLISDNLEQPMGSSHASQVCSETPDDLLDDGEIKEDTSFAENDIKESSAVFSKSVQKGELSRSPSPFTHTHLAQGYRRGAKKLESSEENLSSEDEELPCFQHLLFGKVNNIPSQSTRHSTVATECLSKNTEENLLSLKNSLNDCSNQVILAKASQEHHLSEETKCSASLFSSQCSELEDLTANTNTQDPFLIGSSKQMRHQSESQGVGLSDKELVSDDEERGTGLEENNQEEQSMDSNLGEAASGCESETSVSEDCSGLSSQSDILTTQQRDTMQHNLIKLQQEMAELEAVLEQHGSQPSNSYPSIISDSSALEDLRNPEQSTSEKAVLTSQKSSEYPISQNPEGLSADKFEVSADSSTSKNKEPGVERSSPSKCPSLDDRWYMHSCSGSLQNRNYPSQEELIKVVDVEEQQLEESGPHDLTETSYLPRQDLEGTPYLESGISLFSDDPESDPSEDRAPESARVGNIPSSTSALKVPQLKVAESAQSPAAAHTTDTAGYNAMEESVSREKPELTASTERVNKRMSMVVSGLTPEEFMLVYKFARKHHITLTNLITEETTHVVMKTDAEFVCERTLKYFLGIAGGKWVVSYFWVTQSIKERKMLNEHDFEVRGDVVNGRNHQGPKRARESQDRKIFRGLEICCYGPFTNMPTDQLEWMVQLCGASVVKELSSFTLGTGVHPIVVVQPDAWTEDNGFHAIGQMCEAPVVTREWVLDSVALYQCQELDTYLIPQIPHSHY

The other results are listed elsewhere or left out.
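Further: competitive profiling in live THP-1 cells: cysteine peptides tagged with an iodoacetamide desthiobiotin (IA-DTB) probe, intensity after compound treatment relative to DMSO-treated cells.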

For the target “C19orf54_Q5BKX5_186_LAQEVLGCQAK (UniProt Q5BKX5)”, the “probe-labelled cysteine peptide fold change” value is, setting by setting: (10 µM) -0.105; (50 µM) -0.352.
In the case of “BRIP1_Q9BX63_332_ISDQHTLQTFQGMCK (UniProt Q9BX63)”, the “probe-labelled cysteine peptide fold change” value was 0.0753 (10 µM) and -0.144 (50 µM).
For “CAND1_Q86VP6_802_CVAALTR (UniProt Q86VP6)”, in that order: 0.211 and -0.156.
In the case of “BUB1B_O60566_51_IMSTLQGALAQESACNNTLQQQK (UniProt O60566)”, the “probe-labelled cysteine peptide fold change” value is, setting by setting: (10 µM) -0.0722; (50 µM) -0.254.
In the case of “CAD_P27708_280_GHNQPCLLVGSGR (UniProt P27708)”, the “probe-labelled cysteine peptide fold change” value by setting is: (10 µM) 0.147; (50 µM) 0.0995.
As to “CAMK2D_Q13557_116+127_EYYSEADASHCIQQILESVNHCHLNGIVHR (UniProt Q13557)”, the “probe-labelled cysteine peptide fold change” value was -0.00685 (10 µM) and 0.0696 (50 µM).
As for “C6orf106_Q9H6K1_147_SLEPQEIADVSVQMCSPSR (UniProt Q9H6K1)”, the “probe-labelled cysteine peptide fold change” value (10 µM) is -0.139 and the “probe-labelled cysteine peptide fold change” value (50 µM) amounted to 0.0666.
On to “C2orf69_Q8N8R5_230_SSPSHTTNGCQGEK (UniProt Q8N8R5)”, for which the “probe-labelled cysteine peptide fold change” value reads like this: (10 µM) -0.103; (50 µM) -0.376.
For “CABLES2_Q9BTV7_181_IVLICAK (UniProt Q9BTV7)”, in that order: -0.13 and 0.031.
For “CAP1_Q01518_416_TDGCHAYLSK (UniProt Q01518)”, in that order: -0.111 and 0.0223.
For “BTAF1_O14981_1401_FNYCILDEGHVIK (UniProt O14981)”, the “probe-labelled cysteine peptide fold change” value was 0.0296 (10 µM) and 0.242 (50 µM).
For “C18orf32_Q8TCD1_71_GPTEICDK (UniProt Q8TCD1)”, in that order: 0.351 and 0.469.
As to “BUD31_P41223_119_DTNFGTNCICR (UniProt P41223)”, the “probe-labelled cysteine peptide fold change” value runs as follows: (10 µM) 0.0661; (50 µM) -0.161.
With “C9orf64_Q5T6V5_281_GCSLWCVELIR (UniProt Q5T6V5)”, the “probe-labelled cysteine peptide fold change” value turned out to be 0.465 (10 µM) and 0.747 (50 µM).
For the target “C3orf38_Q5JPI3_224_CASSPHGLVMVGVAGTVHR (UniProt Q5JPI3)”, the “probe-labelled cysteine peptide fold change” value reads like this: (10 µM) 0.0426; (50 µM) 0.173.
Take “BRIP1_Q9BX63_401_EQVVILDEAHNIEDCAR (UniProt Q9BX63)”: the “probe-labelled cysteine peptide fold change” value is -0.207 (10 µM) and -0.335 (50 µM).
With “CAP1_Q01518_375_GKINSITVDNCK (UniProt Q01518)”, the “probe-labelled cysteine peptide fold change” value is -0.0521 (10 µM) and 0.204 (50 µM).
Regarding “BSG_P35613_242_SSEHINEGETAMLVCK (UniProt P35613)”, the “probe-labelled cysteine peptide fold change” value (10 µM) is -0.298 and the “probe-labelled cysteine peptide fold change” value (50 µM) was -0.091.
Consider “CAD_P27708_1455_VHVDCMTSQK (UniProt P27708)”, for which the “probe-labelled cysteine peptide fold change” value runs as follows: (10 µM) 0.0565; (50 µM) -0.0422.
On to “CALR_P27797_105_GQTLVVQFTVKHEQNIDCGGGYVK (UniProt P27797)”, for which the “probe-labelled cysteine peptide fold change” value is -0.343 (10 µM) and -0.766 (50 µM).
On to “CAP1_Q01518_356_CVNTTLQIK (UniProt Q01518)”, for which the “probe-labelled cysteine peptide fold change” value reads like this: (10 µM) 0.0826; (50 µM) 0.165.
As for “C2CD5_Q86YS7_486_CGFCHIPYDELNMPFPAHLTYCYNCR (UniProt Q86YS7)”, the “probe-labelled cysteine peptide fold change” value by setting is: (10 µM) 0.132; (50 µM) -0.157.
The corresponding values for “BTBD10_Q9BSF8_239_CPDGISIPELR (UniProt Q9BSF8)” are -0.125 and -0.712.
On to “BUD31_P41223_137_IIECTHCGCR (UniProt P41223)”, for which the “probe-labelled cysteine peptide fold change” value is, setting by setting: (10 µM) -0.0339; (50 µM) -0.0657.
Regarding “CAMK2G_Q13555_549_WLNVHYHCSGAPAAPLQ (UniProt Q13555)”, the “probe-labelled cysteine peptide fold change” value (10 µM) turned out to be 0.219 and the “probe-labelled cysteine peptide fold change” value (50 µM) is -0.0639.
The corresponding values for “C8orf82_Q6P1X6_66_NFITCFK (UniProt Q6P1X6)” are -0.179 and 0.549.
Take “BTAF1_O14981_862_VHTFAACAVVSLQQLPEK (UniProt O14981)”: the “probe-labelled cysteine peptide fold change” value amounted to 0.085 (10 µM) and 0.377 (50 µM).
As for “BRCA1_P38398_1251_HSTVATECLSK (UniProt P38398)”, the “probe-labelled cysteine peptide fold change” value is -0.00703 (10 µM) and 0.0124 (50 µM).
“BRD7_Q9NPI1_338_LVNSQCEFER (UniProt Q9NPI1)”: the “probe-labelled cysteine peptide fold change” value reads like this: (10 µM) -0.0257; (50 µM) 0.0427.
On to “BUD31_P41223_134_IIECTHCGCR (UniProt P41223)”, for which the “probe-labelled cysteine peptide fold change” value was 0.204 (10 µM) and -0.00885 (50 µM).
For the target “BRIX1_Q8TDN6_52_RHATAEEVEEEERDRIPGPVCK (UniProt Q8TDN6)”, the “probe-labelled cysteine peptide fold change” value was -0.278 (10 µM) and -0.296 (50 µM).
For “BRD9_Q9H8M2_288_EVISCMFEPEGNACSLTDSTAEEHVLALVEHAADEAR (UniProt Q9H8M2)”, in that order: 0.126 and -0.0582.
With “CANX_P27824_360+366_CESAPGCGVWQRPVIDNPNYK (UniProt P27824)”, the “probe-labelled cysteine peptide fold change” value (10 µM) stood at 0.0671 and the “probe-labelled cysteine peptide fold change” value (50 µM) is -0.0416.
As to “BYSL_Q13895_381_ELPVLWHQCLLTLVQR (UniProt Q13895)”, the “probe-labelled cysteine peptide fold change” value by setting is: (10 µM) -0.00198; (50 µM) 0.153.
Consider “BTAF1_O14981_1522_IIQDYYCTLSPLQVQLYEDFAK (UniProt O14981)”, for which the “probe-labelled cysteine peptide fold change” value is, setting by setting: (10 µM) -0.135; (50 µM) 0.243.
As to “BRCA1_P38398_348_KVDLNADPLCER (UniProt P38398)”, the “probe-labelled cysteine peptide fold change” value reads like this: (10 µM) -0.139; (50 µM) -0.043.
Take “CAND2_O75155_375_CIAALISSRPDLLPDFHCTLAPVLIR (UniProt O75155)”: the “probe-labelled cysteine peptide fold change” value (10 µM) stood at 0.136 and the “probe-labelled cysteine peptide fold change” value (50 µM) was -0.42.
As for “BRD7_Q9NPI1_574_LSTRPPPNMICLLGPSYR (UniProt Q9NPI1)”, the “probe-labelled cysteine peptide fold change” value is -0.0821 (10 µM) and -0.402 (50 µM).

The record behind these values is the supplement of paper PMC12067093, “Discovery and optimisation of a covalent ligand for TRIM25 and its application to targeted protein ubiquitination” (Chemical Science, 2025).
